Measurements reported in PubChem BioAssay AID493246 (Drosophila RNAi Screening Center, 2011).

Screen: 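Genome-wide search for dsRNAs that reduce cell number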 (primary screen)
Cell system: Drosophila Kc and S2R+ cells
Reagent: long dsRNA against Drosophila genes
Measured: 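Cell number per well after knock-down, printed as raw plate values; calls were based on per-plate z-scores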
Reading the numbers: Kc cell number and S2R+ cell number: higher = more cells remaining
Active means: 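Active when the per-plate z-score of cell number is 3 or more in the direction of fewer cells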
The deposit covers about 21,000 reagents; below is a random part of those with a known target gene and a result. Over the whole deposit, 429 (2%) got an active call. 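Values are raw and not normalised between plates; calls rest on per-plate z-scores that were not deposited.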 A number with no mark means an inactive call. Not stated in the record: the amount of reagent, the time to read-out.

no.	Target gene	amplicon	Kc cell number, rep 1	Kc cell number, rep 2	S2R+ cell number, rep 1	S2R+ cell number, rep 2
1	CG30089	DRSC06126	1.43e6	1.49e6	1.12e6	1.11e6
2	CG30089	DRSC06127	4.15e5 (active)	9.01e5	5.31e5	6.11e5
3	CG30089	DRSC06267	1.69e6	2.00e6	1.58e6	1.72e6
4	CG18368	DRSC06731	1.64e6	1.64e6	1.38e6	1.41e6
5	PIG-T	DRSC17774	1.43e6	1.42e6	1.08e6	1.18e6
6	Jon44E	DRSC07216	1.59e6	1.63e6	1.23e6	1.43e6
7	CG5342	DRSC15776	1.53e6	1.59e6	1.28e6	1.32e6
8	CG7191	DRSC03022	1.61e6	1.68e6	1.21e6	1.41e6
9	mnb	DRSC20058	1.47e6	1.44e6	7.39e5	8.11e5
10	mnb	DRSC20353	1.51e6	1.55e6	1.00e6	1.04e6
11	Elp1	DRSC14250	1.54e6	1.62e6	1.18e6	1.23e6
12	Ibf1	DRSC16419	1.65e6	1.75e6	1.36e6	1.56e6
13	Paip1	DRSC07302	1.19e6	1.22e6	1.02e6	1.08e6
14	Hsp23	DRSC11188	1.31e6	1.35e6	1.32e6	1.29e6
15	Nhe2	DRSC03172	1.52e6	1.60e6	1.23e6	3.48e5
16	Nhe2	DRSC03377	1.67e6	1.78e6	1.37e6	4.77e5
17	Dmtn	DRSC12513	1.62e6	1.66e6	1.23e6	1.29e6
18	CG18190	DRSC06714	1.75e6	1.72e6	1.18e6	1.35e6
19	Acadvl	DRSC07022	1.37e6	1.38e6	1.16e6	1.16e6
20	CG13021	DRSC17893	1.26e6	1.60e6	1.09e6	1.28e6
21	CG34256	DRSC09582	1.56e6	1.66e6	1.16e6	1.41e6
22	ReepA	DRSC04572	1.34e6	1.42e6	1.07e6	1.16e6
23	Hrd3	DRSC14156	1.42e6	1.61e6	1.16e6	1.23e6
24	CG18004	DRSC06705	1.68e6	1.65e6	1.43e6	1.53e6
25	CG34319 (retired record)	DRSC18138	2.87e5 (active)		5.33e5	
26	CG1889	DRSC18195	6.59e5		9.42e5	
27	CG32647	DRSC19690	1.55e6	1.50e6	1.04e6	1.08e6
28	CG32647	DRSC19878	1.52e6	1.44e6	9.40e5	1.05e6
29	CG34253	DRSC09531	1.36e6	1.43e6	1.09e6	1.31e6
30	CG4645	DRSC19907	5.13e5		7.62e5	
31	Spps	DRSC15856	1.42e6	1.51e6	9.97e5	1.08e6
32	dila	DRSC06607	1.77e6	1.82e6	1.31e6	1.49e6
33	Ntf-2r	DRSC02019	1.63e6	1.54e6	1.30e6	1.53e6
34	Cyp9c1	DRSC04607	1.41e6	1.51e6	1.19e6	1.33e6
35	crm	DRSC18754	5.84e5		9.06e5	
36	kl-3 (retired record)	DRSC20730	1.36e6	1.47e6	1.10e6	1.12e6
37	kl-3 (retired record)	DRSC20891	1.54e6	1.55e6	1.09e6	1.30e6
38	kl-3 (retired record)	DRSC20934	1.50e6	1.69e6	1.05e6	1.18e6
39	CG7860	DRSC20060	5.50e5		8.55e5	
40	Asap	DRSC06493	1.51e6	1.68e6	1.21e6	1.41e6
41	Asap	DRSC06830	1.23e6	1.33e6	1.09e6	1.15e6
42	Cnb	DRSC08569	1.38e6	1.44e6	1.21e6	1.28e6
43	prg	DRSC03324	1.91e6	1.93e6	1.22e6	1.42e6
44	COX7A	DRSC16514	1.50e6	1.60e6	1.12e6	1.21e6
45	Lhr	DRSC06759	1.43e6	1.46e6	1.11e6	1.12e6
46	ND-B14	DRSC07029	1.60e6	1.67e6	1.07e6	1.22e6
47	CG32017	DRSC17183	1.14e6	1.29e6	1.03e6	1.09e6
48	betaTub85D	DRSC16910	1.55e6	1.51e6	9.34e5	1.01e6
49	Oseg2	DRSC08343	1.64e6	1.54e6	9.62e5	1.40e6
50	Nplp2	DRSC09824	1.40e6	1.27e6	1.31e6	1.41e6
51	U2af50	DRSC20297	4.93e5		8.62e5	
52	CG5021	DRSC10469	1.37e6	1.40e6	1.15e6	1.21e6
53	D12	DRSC03311	1.40e6	1.47e6	6.43e5	6.64e5
54	RpL29	DRSC04650	1.47e6	1.55e6	1.25e6	3.01e5
55	CG2680	DRSC18466	1.54e6	1.54e6	1.03e6	1.13e6
56	l(2)k05819	DRSC00826	1.32e6	1.31e6	9.57e5	1.01e6
57	CG16779	DRSC15153	1.54e6	1.55e6	1.20e6	1.28e6
58	CG33655	DRSC03858	6.37e5		8.58e5	
59	Cad99C	DRSC15050	1.49e6	1.49e6	1.03e6	1.14e6
60	Cad99C	DRSC16317	5.02e5		7.74e5	

9 of these entries in another layout:
| Target gene | amplicon | Kc cell number, rep 1 | Kc cell number, rep 2 | S2R+ cell number, rep 1 | S2R+ cell number, rep 2 |
| --- | --- | --- | --- | --- | --- |
| dila | DRSC06607 | 1.77e6 | 1.82e6 | 1.31e6 | 1.49e6 |
| Ntf-2r | DRSC02019 | 1.63e6 | 1.54e6 | 1.30e6 | 1.53e6 |
| Cyp9c1 | DRSC04607 | 1.41e6 | 1.51e6 | 1.19e6 | 1.33e6 |
| crm | DRSC18754 | 5.84e5 | – | 9.06e5 | – |
| kl-3 (retired record) | DRSC20730 | 1.36e6 | 1.47e6 | 1.10e6 | 1.12e6 |
| kl-3 (retired record) | DRSC20891 | 1.54e6 | 1.55e6 | 1.09e6 | 1.30e6 |
| kl-3 (retired record) | DRSC20934 | 1.50e6 | 1.69e6 | 1.05e6 | 1.18e6 |
| CG7860 | DRSC20060 | 5.50e5 | – | 8.55e5 | – |
| Asap | DRSC06493 | 1.51e6 | 1.68e6 | 1.21e6 | 1.41e6 |
